This note sets out measurements from paper doi:10.1101/2020.07.01.182105.

Chains of the proteins cited; added tags and fusions are not shown. Lines headed by an entry give the natural chain unless they say otherwise; changes in a name come on top.
UniProt P07280: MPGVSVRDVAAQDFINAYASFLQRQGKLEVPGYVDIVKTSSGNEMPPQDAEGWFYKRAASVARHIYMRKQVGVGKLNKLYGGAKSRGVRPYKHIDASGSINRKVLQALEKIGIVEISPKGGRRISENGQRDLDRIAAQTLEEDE
UniProt P0C0W9: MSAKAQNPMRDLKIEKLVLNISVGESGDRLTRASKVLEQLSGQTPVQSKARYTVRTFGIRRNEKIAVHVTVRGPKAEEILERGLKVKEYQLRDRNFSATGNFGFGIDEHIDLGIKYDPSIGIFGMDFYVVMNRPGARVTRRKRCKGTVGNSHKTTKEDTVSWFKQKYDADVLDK

This assay deals with T1, eEF3 (eukaryotic elongation factor 3), C-terminally TAP-tagged (S. cerevisiae) (UniProt P16521).
T1 sequence: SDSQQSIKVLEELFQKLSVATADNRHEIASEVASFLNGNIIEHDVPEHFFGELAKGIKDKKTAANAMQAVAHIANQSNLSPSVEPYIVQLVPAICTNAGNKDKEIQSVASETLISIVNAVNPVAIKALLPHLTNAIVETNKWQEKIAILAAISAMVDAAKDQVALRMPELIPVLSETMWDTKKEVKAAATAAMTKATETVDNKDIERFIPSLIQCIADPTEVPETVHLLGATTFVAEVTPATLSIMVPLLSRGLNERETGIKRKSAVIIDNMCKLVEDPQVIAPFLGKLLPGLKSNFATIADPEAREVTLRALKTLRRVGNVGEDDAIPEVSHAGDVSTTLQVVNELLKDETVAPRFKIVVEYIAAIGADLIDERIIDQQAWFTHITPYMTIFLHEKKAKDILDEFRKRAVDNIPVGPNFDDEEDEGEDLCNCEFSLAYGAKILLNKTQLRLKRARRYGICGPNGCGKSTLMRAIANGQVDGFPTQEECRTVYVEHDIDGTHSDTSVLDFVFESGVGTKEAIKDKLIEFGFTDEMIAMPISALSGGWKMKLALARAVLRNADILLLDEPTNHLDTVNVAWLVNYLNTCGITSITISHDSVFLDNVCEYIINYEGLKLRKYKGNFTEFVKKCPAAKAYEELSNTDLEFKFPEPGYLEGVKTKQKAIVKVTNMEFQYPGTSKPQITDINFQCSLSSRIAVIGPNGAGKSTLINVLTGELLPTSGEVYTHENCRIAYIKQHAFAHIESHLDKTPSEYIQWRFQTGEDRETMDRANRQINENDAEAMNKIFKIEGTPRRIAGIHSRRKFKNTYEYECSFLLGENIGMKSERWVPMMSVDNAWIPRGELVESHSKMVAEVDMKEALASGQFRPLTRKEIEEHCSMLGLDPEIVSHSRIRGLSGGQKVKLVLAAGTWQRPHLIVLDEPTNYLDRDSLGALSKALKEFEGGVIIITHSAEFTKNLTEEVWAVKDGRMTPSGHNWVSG
The assay is described as follows: cryo-EM structure.

Results are given in words; binding and its absence hold for the method and conditions named. Binding calls can cover weak binding; strength is not graded here. Tags and fused reporters may be left off the sequences shown.

As for “ribosomal protein eS19 (from UniProt P07280)”, the binding result is recorded as “binds”.
For the substance “ribosomal protein uL5 (from UniProt P0C0W9)”, the binding result is “binds”.
